Experimental data reported in the supplement of paper PMC12819154, “High-throughput peptide-centric local stability assay extends protein–ligand identification to membrane proteins, tissues and bacteria” (Nature Structural & Molecular Biology, 2025).
The other results are listed elsewhere or left out. Most entries show no effect beyond the scatter of the controls.

Chains of the proteins cited; added tags and fusions are not shown. Lines headed by an entry give the natural chain unless they say otherwise; changes in a name come on top.
UniProt P75694: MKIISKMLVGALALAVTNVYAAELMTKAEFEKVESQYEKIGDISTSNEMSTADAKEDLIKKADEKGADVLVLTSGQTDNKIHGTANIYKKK
UniProt P66948: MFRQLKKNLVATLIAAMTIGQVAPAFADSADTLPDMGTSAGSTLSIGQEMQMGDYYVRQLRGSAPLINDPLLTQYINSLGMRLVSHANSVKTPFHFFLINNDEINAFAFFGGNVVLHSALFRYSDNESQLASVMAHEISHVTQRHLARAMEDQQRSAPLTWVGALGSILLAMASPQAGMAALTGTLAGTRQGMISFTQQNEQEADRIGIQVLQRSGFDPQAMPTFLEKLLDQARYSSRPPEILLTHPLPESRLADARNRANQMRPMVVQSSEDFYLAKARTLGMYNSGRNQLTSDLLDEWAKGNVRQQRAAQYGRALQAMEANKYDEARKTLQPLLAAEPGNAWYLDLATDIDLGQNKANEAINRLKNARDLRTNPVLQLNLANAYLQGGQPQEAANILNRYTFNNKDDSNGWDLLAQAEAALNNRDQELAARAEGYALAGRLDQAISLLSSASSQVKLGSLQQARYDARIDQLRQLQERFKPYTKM
UniProt P75828: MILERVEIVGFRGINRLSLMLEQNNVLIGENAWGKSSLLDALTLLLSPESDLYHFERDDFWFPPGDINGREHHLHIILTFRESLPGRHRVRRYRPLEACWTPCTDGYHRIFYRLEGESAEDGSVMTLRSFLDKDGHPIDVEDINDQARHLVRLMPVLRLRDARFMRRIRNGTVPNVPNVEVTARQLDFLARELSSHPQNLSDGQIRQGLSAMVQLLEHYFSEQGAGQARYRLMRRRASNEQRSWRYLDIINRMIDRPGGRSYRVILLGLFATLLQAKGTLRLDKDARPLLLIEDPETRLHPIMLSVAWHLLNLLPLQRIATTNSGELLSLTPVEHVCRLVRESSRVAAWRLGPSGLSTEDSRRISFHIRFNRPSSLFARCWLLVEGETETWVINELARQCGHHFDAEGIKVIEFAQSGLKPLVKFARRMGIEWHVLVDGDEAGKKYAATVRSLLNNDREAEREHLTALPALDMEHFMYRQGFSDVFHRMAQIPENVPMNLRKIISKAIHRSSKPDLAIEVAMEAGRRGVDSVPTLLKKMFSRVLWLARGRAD
UniProt P56580: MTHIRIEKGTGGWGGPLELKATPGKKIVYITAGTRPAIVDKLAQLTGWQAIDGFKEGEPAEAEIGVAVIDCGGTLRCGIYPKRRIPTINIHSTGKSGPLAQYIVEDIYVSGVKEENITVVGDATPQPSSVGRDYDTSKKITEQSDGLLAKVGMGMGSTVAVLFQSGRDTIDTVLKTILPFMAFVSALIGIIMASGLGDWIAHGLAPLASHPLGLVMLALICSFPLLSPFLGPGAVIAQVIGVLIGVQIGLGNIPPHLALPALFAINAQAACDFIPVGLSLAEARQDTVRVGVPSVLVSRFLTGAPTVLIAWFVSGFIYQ
UniProt P52061: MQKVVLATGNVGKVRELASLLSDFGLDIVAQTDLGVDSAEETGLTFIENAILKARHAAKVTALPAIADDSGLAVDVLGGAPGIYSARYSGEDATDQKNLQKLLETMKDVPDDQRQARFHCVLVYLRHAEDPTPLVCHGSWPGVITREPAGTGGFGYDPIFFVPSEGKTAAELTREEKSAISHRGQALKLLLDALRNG
UniProt P75867: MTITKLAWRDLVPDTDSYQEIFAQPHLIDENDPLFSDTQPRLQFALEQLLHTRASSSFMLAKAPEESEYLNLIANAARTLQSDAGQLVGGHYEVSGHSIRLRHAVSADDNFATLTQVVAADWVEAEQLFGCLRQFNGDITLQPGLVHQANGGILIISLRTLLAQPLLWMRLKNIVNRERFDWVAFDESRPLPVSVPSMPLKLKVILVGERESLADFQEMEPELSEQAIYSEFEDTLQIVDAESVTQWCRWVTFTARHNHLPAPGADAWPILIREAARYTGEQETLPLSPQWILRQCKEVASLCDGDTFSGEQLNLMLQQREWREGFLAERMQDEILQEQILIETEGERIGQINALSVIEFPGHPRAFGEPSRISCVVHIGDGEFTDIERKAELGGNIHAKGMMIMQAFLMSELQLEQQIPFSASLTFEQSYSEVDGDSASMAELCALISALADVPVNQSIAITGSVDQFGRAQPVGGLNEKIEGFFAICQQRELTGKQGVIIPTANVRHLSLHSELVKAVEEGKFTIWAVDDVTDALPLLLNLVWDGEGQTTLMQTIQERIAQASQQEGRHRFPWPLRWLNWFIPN
UniProt P75809: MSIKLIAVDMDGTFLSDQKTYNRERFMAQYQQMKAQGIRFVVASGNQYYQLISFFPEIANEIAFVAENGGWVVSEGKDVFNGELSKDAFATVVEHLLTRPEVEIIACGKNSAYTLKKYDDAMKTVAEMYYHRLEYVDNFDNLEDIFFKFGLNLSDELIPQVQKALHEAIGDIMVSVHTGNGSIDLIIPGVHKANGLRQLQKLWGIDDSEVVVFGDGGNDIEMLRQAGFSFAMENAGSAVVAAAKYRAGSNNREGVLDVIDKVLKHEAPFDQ
UniProt P52598: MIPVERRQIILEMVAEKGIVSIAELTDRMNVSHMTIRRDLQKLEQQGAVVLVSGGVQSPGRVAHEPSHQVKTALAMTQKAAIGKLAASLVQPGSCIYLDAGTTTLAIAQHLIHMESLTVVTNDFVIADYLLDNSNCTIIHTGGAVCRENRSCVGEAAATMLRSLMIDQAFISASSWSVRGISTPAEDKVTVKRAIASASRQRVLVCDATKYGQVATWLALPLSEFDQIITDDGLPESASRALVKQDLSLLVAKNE
UniProt P52127: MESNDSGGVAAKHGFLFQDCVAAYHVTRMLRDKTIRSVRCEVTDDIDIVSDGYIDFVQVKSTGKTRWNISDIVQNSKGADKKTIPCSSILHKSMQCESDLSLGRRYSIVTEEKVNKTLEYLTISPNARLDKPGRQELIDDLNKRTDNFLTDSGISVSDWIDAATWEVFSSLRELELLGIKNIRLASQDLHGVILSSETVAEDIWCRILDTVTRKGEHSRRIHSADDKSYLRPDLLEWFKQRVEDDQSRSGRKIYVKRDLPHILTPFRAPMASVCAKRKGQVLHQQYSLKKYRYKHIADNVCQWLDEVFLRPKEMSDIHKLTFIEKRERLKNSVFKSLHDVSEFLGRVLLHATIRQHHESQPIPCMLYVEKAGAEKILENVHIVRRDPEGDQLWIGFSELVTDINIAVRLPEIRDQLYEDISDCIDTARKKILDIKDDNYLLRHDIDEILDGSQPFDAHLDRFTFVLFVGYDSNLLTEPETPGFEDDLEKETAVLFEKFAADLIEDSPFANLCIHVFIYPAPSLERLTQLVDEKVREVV
UniProt P75820: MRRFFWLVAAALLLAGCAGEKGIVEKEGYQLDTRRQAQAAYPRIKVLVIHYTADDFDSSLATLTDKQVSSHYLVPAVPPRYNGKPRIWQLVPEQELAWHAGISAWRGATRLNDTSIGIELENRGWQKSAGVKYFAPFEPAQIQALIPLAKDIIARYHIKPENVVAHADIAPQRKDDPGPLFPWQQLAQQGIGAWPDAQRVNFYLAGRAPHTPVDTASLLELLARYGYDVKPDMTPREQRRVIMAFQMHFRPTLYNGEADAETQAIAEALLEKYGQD
UniProt P75678: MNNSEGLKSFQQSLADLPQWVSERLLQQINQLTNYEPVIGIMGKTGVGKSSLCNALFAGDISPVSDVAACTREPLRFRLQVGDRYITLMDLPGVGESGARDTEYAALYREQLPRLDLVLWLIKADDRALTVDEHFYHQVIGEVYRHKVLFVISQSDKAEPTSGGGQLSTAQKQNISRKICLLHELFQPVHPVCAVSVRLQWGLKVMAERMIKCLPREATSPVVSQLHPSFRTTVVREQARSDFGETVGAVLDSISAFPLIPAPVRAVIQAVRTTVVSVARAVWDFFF
UniProt P75804: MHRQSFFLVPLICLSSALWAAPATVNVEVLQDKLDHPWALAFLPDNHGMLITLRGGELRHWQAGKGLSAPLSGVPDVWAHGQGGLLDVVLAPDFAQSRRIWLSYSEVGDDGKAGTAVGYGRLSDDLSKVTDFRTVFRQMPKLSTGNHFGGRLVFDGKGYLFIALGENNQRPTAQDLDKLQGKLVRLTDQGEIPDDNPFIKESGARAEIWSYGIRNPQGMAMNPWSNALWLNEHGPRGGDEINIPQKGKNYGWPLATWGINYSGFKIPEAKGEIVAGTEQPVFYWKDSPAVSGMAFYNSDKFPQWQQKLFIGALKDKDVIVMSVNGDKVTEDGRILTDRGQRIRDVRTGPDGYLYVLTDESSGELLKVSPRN
UniProt P56262: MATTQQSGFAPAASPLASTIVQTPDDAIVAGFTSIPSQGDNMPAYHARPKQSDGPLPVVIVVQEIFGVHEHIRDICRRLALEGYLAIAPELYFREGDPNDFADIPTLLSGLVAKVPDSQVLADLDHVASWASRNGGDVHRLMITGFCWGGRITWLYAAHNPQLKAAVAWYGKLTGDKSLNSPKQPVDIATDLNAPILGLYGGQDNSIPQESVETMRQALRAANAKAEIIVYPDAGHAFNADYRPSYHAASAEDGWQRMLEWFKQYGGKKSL
UniProt P75734: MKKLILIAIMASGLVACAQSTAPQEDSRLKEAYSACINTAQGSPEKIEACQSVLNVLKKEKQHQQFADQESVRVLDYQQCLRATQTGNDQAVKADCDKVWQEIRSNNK
UniProt P64610: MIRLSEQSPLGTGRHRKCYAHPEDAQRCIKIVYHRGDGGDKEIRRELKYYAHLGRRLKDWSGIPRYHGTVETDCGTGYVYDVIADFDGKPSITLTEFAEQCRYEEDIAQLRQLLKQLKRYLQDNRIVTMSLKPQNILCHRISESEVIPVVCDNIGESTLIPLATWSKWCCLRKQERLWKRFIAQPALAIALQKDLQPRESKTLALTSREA
UniProt P52108: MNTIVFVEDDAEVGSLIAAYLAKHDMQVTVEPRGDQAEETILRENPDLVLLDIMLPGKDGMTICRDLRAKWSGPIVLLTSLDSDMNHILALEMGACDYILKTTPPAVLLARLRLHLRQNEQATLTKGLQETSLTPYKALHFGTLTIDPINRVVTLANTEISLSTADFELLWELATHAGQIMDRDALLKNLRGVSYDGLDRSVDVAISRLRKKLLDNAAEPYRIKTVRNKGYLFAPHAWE
UniProt P50456: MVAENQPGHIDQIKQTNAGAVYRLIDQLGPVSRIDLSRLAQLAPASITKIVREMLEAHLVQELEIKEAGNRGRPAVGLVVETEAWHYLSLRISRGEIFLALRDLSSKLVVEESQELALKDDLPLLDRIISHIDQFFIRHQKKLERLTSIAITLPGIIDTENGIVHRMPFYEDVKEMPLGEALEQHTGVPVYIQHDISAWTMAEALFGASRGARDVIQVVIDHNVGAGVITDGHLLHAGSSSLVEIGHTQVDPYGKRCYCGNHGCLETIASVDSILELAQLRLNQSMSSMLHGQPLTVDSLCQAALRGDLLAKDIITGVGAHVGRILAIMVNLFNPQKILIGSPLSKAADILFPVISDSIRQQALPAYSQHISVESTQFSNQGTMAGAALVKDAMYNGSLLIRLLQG
UniProt P52614: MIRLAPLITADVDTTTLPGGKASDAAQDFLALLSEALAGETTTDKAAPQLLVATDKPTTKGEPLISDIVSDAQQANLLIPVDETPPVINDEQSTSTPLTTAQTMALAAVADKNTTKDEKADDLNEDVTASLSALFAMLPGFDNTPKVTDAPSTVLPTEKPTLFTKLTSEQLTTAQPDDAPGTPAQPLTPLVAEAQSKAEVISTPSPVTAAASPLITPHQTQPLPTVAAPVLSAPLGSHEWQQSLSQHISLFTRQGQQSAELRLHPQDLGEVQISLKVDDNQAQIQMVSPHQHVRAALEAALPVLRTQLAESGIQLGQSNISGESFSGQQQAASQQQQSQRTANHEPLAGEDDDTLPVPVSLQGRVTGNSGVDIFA
UniProt P64554: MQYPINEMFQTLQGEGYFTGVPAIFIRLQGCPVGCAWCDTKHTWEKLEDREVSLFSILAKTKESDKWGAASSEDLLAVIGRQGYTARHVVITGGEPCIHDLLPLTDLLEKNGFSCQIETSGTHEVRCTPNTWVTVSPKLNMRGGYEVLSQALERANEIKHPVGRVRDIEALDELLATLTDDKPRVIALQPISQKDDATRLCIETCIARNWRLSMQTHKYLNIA
UniProt P52062: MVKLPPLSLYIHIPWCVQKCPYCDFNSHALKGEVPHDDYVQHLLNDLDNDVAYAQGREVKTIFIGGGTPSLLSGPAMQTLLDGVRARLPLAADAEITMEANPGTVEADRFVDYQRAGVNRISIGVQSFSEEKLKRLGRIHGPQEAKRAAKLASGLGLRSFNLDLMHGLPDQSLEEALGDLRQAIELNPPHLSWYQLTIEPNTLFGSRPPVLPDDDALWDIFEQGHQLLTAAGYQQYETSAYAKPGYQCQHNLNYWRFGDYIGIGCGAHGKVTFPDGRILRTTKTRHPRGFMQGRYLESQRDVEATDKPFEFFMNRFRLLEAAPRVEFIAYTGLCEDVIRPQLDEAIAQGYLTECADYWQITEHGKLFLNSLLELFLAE

compound: CC1(C)S[C@@H]2[C@H](NC(=O)[C@H](N)c3ccccc3)C(=O)N2[C@H]1C(=O)O [ampicillin]; assay: log2 fold change of tryptic peptide abundance, ligand vs vehicle (limited proteolysis) (log2 ratio); higher = more trypsin-susceptible (destabilized); conditions: ligand concentration: 10 uM; sample: E. coli crude lysate

| Target | log2 fold change |
| --- | --- |
| UniProt P55734 (peptide sequence: DADEYLR, peptide start residue: 26) | -0.476 |
| UniProt P75694 (peptide sequence: IHGTANIYKKK, peptide start residue: 81) | 0.468 |
| UniProt P52647 (peptide sequence: LLDQFADKIPAELLTALK, peptide start residue: 900) | -0.634 |
| UniProt P66948 (peptide sequence: FKPYTKM, peptide start residue: 481) | -0.168 |
| UniProt P75828 (peptide sequence: QGFSDVFHR, peptide start residue: 480) | -0.503 |
| UniProt P56580 (peptide sequence: RRIPTINIHSTGK, peptide start residue: 83) | 0.765 |
| UniProt P52061 (peptide sequence: FHCVLVYLR, peptide start residue: 118) | -0.216 |
| UniProt P75867 (peptide sequence: WVTFTAR, peptide start residue: 250) | -0.242 |
| UniProt P75809 (peptide sequence: KYDDAMK, peptide start residue: 117) | 0.471 |
| UniProt P52598 (peptide sequence: VAHEPSHQVK, peptide start residue: 62) | -0.171 |
| UniProt P52127 (peptide sequence: QRVEDDQSR, peptide start residue: 240) | 0.973 |
| UniProt P75820 (peptide sequence: EGYQLDTR, peptide start residue: 27) | 0.52 |
| UniProt P55135 (peptide sequence: ACLGSLQAMR, peptide start residue: 178) | 0.228 |
| UniProt P75678 (peptide sequence: EATSPVVSQLHPSFR, peptide start residue: 217) | -0.213 |
| UniProt P75804 (peptide sequence: DVIVMSVNGDK, peptide start residue: 317) | 0.136 |
| UniProt P75792 (peptide sequence: FMAQYQELK, peptide start residue: 26) | -0.291 |

Part of the list above, tab-delimited.
Target	log2 fold change
UniProt P66948 (peptide sequence: FKPYTKM, peptide start residue: 481)	-0.168
UniProt P75792 (peptide sequence: FMAQYQELK, peptide start residue: 26)	-0.291

(next part)

| Target | log2 fold change |
| --- | --- |
| UniProt P52086 (peptide sequence: AIGVENA, peptide start residue: 197) | 0.156 |
| UniProt P56262 (peptide sequence: ITWLYAAHNPQLK, peptide start residue: 152) | -0.324 |
| UniProt P69922 (peptide sequence: YGEDENNK, peptide start residue: 240) | -0.453 |
| UniProt P75783 (peptide sequence: ELIDQLR, peptide start residue: 64) | 0.197 |
| UniProt P75734 (peptide sequence: VLDYQQCLR, peptide start residue: 74) | -0.142 |
| UniProt P64610 (peptide sequence: GDGGDKEIR, peptide start residue: 36) | 0.252 |
| UniProt P46850 (peptide sequence: EQHFGEEIYVTRK, peptide start residue: 287) | -0.4 |
| UniProt P52108 (peptide sequence: ALHFGTLTIDPINR, peptide start residue: 138) | 0.169 |
| UniProt P46837 (peptide sequence: FVEDPHTVVK, peptide start residue: 687) | 0.125 |
| UniProt P67910 (peptide sequence: KGQIEYIPFPDKLK, peptide start residue: 256) | 0.12 |
| UniProt P50456 (peptide sequence: QTNAGAVYR, peptide start residue: 15) | 0.483 |
| UniProt P71243 (peptide sequence: IATIFHGIDISSR, peptide start residue: 146) | -0.28 |
| UniProt P52614 (peptide sequence: AAPQLLVATDKPTTK, peptide start residue: 46) | -0.13 |
| UniProt P52133 (peptide sequence: LVAGETLSVR, peptide start residue: 22) | 0.016 |
| UniProt P64554 (peptide sequence: LSMQTHK, peptide start residue: 212) | 0.52 |
| UniProt P52062 (peptide sequence: PGYQCQHNLNYWR, peptide start residue: 244) | 0.472 |
